Experimental data as given in publication doi:10.1101/2025.04.09.648038.

Chains of the proteins cited; added tags and fusions are not shown. Lines headed by an entry give the natural chain unless they say otherwise; changes in a name come on top.
UniProt O74525: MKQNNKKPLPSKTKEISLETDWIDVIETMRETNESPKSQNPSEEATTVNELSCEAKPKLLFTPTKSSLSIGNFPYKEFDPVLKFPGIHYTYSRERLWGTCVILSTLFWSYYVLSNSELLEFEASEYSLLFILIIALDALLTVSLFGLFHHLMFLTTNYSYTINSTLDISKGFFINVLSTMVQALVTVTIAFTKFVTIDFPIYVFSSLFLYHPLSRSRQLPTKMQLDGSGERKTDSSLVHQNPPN

Molecular target: T1, TurboID-mCherry-Atg8 (S. pombe) (UniProt O94272)
T1 sequence: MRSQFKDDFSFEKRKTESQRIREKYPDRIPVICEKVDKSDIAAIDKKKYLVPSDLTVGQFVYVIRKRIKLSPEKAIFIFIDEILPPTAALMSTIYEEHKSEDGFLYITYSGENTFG
Assay: proximity labelling

Substance: Npr1 (SPCC70.04c), endogenous (from UniProt O74525)
- binding: binds

These are yes or no findings as the source states them, for the method shown. Binding seen in cells or lysates may run through a third protein. These calls come from enrichment with a bait or labelling near it, and not all partners need be listed.
